# Results deposited as PubChem BioAssay AID493246 (Drosophila RNAi Screening Center, 2011).
# Test: 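Genome-wide search for dsRNAs that reduce cell number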 (primary screen)
# System: Drosophila Kc and S2R+ cells
# Knock-down reagent: long dsRNA against Drosophila genes
# Measurement: 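Raw, unnormalised count of remaining cells in each well; per-plate z-scores of cell number underlie the calls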
# Scale: Kc cell number and S2R+ cell number: higher = more cells remaining
# Active means: 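Counted as a hit if cell number falls by a z-score of at least 3 within its plate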
# In all, the deposit lists about 21,000 reagents; shown is an unselected part of those that have a named target and a result. Over the whole deposit, 429 (2%) were called active. 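Values are raw and not normalised between plates; calls rest on per-plate z-scores that were not deposited.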 Unmarked entries are inactive. Reagents against one gene are numbered here. The record does not give: the amount of reagent, the time to read-out.
Target gene,reagent no.,"Kc cell number, rep 1","Kc cell number, rep 2","S2R+ cell number, rep 1","S2R+ cell number, rep 2"
eIF2Bgamma,1,1.39e6,1.40e6,1.14e6,1.19e6
CG2906,1,1.54e6,1.50e6,1.35e6,1.39e6
Acbp2,1,1.60e6,1.43e6,1.10e6,1.21e6
CG15202,1,1.61e6,1.62e6,1.10e6,1.25e6
CG7016,1,1.60e6,1.71e6,1.01e6,1.02e6
CG3588,1,1.46e6,1.46e6,1.00e6,1.07e6
vers,1,1.20e6,1.24e6,1.21e6,1.16e6
CG34025,1,1.52e6,1.61e6,1.07e6,1.23e6

Records listed so far whose gene name begins with C or c:
Target gene,reagent no.,"Kc cell number, rep 1","Kc cell number, rep 2","S2R+ cell number, rep 1","S2R+ cell number, rep 2"
CG2906,1,1.54e6,1.50e6,1.35e6,1.39e6
CG15202,1,1.61e6,1.62e6,1.10e6,1.25e6
CG7016,1,1.60e6,1.71e6,1.01e6,1.02e6
CG3588,1,1.46e6,1.46e6,1.00e6,1.07e6
CG34025,1,1.52e6,1.61e6,1.07e6,1.23e6

Further records follow.
Target gene,reagent no.,"Kc cell number, rep 1","Kc cell number, rep 2","S2R+ cell number, rep 1","S2R+ cell number, rep 2"
CG9166,1,1.17e6,1.28e6,9.92e5,1.23e6
CG2930,1,5.57e5,,8.61e5,
CG3061,1,1.28e6,1.54e6,1.15e6,1.22e6
drk,1,1.06e6,1.07e6,9.18e5,9.72e5
CG4707,1,1.44e6,1.53e6,1.21e6,1.29e6
PolD1,1,1.39e6,1.40e6,1.25e6,1.32e6
CG17237,1,1.65e6,1.66e6,1.08e6,1.25e6
CG4017,1,1.55e6,1.60e6,1.23e6,1.42e6
CG1674,1,1.58e6,1.55e6,1.02e6,1.13e6
CG10340,1,1.44e6,1.58e6,1.12e6,1.23e6
Cpr66D,1,1.39e6,1.36e6,7.91e5,8.97e5
Cpr66D,2,1.55e6,1.54e6,9.06e5,1.02e6
CG18081,1,1.41e6,1.41e6,1.19e6,1.32e6
ix,1,1.42e6,1.42e6,1.09e6,1.25e6
Spt7,1,1.75e6,1.79e6,1.09e6,1.27e6
clos,1,1.61e6,1.66e6,1.30e6,1.44e6
clos,2,1.66e6,1.70e6,1.31e6,1.49e6
clos,3,1.60e6,1.65e6,1.32e6,1.49e6
